Results deposited as PubChem BioAssay AID1259254 (NCATS, 2017)
Assay: 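Finding genes that stop cells copying their DNA twice in one cycle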 (primary screen). Cells: human HCT116 colorectal cancer cells. Reagents: single siRNA against human genes. Time to read-out: 3 days. Measurement: 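Imaged Hoechst DNA stain sorts each cell into a cycle phase by DNA amount; per plate, G2 fraction set to 0% for non-targeting and 100% for GMNN siRNA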. Scale: G2 robust z-score and G2 cells, % of GMNN control: higher = more G2 cells, more excess DNA replication. Hit rule: 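An siRNA counts as active if its G2 robust z-score lies at least 5 MADs above the screen median; here such calls match roughly 38% of GMNN control or more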.
Shown is an unselected part of about 59,000 reagents. Of all reagents, about 1,550 (2.6%) got an active call. 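G2 share is only a proxy for re-replication; each gene was hit by three separate siRNAs, and active genes were retested.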 Unmarked entries are inactive. Reagents against one gene are numbered here. Not all columns of the deposit are shown. The record does not give: the amount of reagent.

For NKD1 (GeneID 85407) #1, what does the deposit list?
G2 robust z-score: 0.246; G2 cells, % of GMNN control: 4.7

How did the screen score NKD1 (GeneID 85407) #2?
G2 robust z-score: 1.28; G2 cells, % of GMNN control: 11.9

Which result is listed for NKD1 (GeneID 85407) #3?
G2 robust z-score: -0.422; G2 cells, % of GMNN control: -0.00406

What is on record for MAP3K12 (GeneID 7786) #1?
G2 robust z-score: -1.56; G2 cells, % of GMNN control: -8.01

For MAP3K12 (GeneID 7786) #2, what was measured?
G2 robust z-score: -0.434; G2 cells, % of GMNN control: -0.0869

For MAP3K12 (GeneID 7786) #3, what does the deposit list?
G2 robust z-score: -0.317; G2 cells, % of GMNN control: 0.739

How did the screen score LINC01874 (GeneID 727944) #1?
G2 robust z-score: 0.0319; G2 cells, % of GMNN control: 3.19

For LINC01874 (GeneID 727944) #2, what does the deposit list?
G2 robust z-score: -0.958; G2 cells, % of GMNN control: -3.77

How did the screen score LINC01874 (GeneID 727944) #3?
G2 robust z-score: -0.379; G2 cells, % of GMNN control: 0.299

With LRRC36 (GeneID 55282) #1, what was measured?
G2 robust z-score: 0.017; G2 cells, % of GMNN control: 3.09

What is on record for LRRC36 (GeneID 55282) #2?
G2 robust z-score: -1.03; G2 cells, % of GMNN control: -4.26

Which result is listed for LRRC36 (GeneID 55282) #3?
G2 robust z-score: 0.13; G2 cells, % of GMNN control: 3.88

For ZFP2 (GeneID 80108) #1, how do the results read?
G2 robust z-score: 1.89; G2 cells, % of GMNN control: 16.3

What did the screen give for ZFP2 (GeneID 80108) #2?
G2 robust z-score: -0.315; G2 cells, % of GMNN control: 0.748

Which result is listed for ZFP2 (GeneID 80108) #3?
G2 robust z-score: 0.328; G2 cells, % of GMNN control: 5.27

For XPNPEP2 (GeneID 7512) #1, what does the deposit list?
G2 robust z-score: -0.363; G2 cells, % of GMNN control: 0.411

Which result is listed for XPNPEP2 (GeneID 7512) #2?
G2 robust z-score: 0.479; G2 cells, % of GMNN control: 6.33

How did the screen score XPNPEP2 (GeneID 7512) #3?
G2 robust z-score: 2.51; G2 cells, % of GMNN control: 20.6

For TAS2R19 (GeneID 259294) #1, what was measured?
G2 robust z-score: 3.9; G2 cells, % of GMNN control: 30.4

What did the screen give for TAS2R19 (GeneID 259294) #2?
G2 robust z-score: -0.317; G2 cells, % of GMNN control: 0.739

With TAS2R19 (GeneID 259294) #3, how do the results read?
G2 robust z-score: -0.259; G2 cells, % of GMNN control: 1.14

What is on record for DMAP1 (GeneID 55929) #1?
G2 robust z-score: -0.44; G2 cells, % of GMNN control: -0.128

With DMAP1 (GeneID 55929) #2, how do the results read?
G2 robust z-score: 1.28; G2 cells, % of GMNN control: 11.9

With DMAP1 (GeneID 55929) #3, what was measured?
G2 robust z-score: 0.885; G2 cells, % of GMNN control: 9.19

For HPS1 (GeneID 3257) #1, what does the deposit list?
G2 robust z-score: -1.02; G2 cells, % of GMNN control: -4.2

For HPS1 (GeneID 3257) #2, what was measured?
G2 robust z-score: -0.715; G2 cells, % of GMNN control: -2.06

How did the screen score HPS1 (GeneID 3257) #3?
G2 robust z-score: -0.489; G2 cells, % of GMNN control: -0.471

With CALML5 (GeneID 51806) #1, what does the deposit list?
G2 robust z-score: 1.52; G2 cells, % of GMNN control: 13.6

With CALML5 (GeneID 51806) #2, what was measured?
G2 robust z-score: -1.17; G2 cells, % of GMNN control: -5.24

For CALML5 (GeneID 51806) #3, how do the results read?
G2 robust z-score: -0.31; G2 cells, % of GMNN control: 0.788

Look-ups from the entries so far.
Result for HPS1 (GeneID 3257) #3 in “G2 cells, % of GMNN control”: -0.471
For “G2 robust z-score”, LINC01874 (GeneID 727944) #2 reads -0.958
Result of HPS1 (GeneID 3257) #2 under “G2 cells, % of GMNN control”: -2.06
For “G2 robust z-score”, HPS1 (GeneID 3257) #1 is entered as -1.02
